Source: PubChem BioAssay AID1259308 (NCATS, 2017)

Test: 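Candidate targets for better recombinant protein yield in mammalian cells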 (primary screen)
System: human HEK293 embryonic kidney cells stably expressing firefly luciferase (HEK-CMV-Luc2-Hygro)
Reagent: single siRNA against human genes, 0.8 pmol siRNA per well
Duration: 72 h
Measured: 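Luciferase light (ONE-Glo) measured on one replicate plate set and viability (CellTiter-Glo) on the other, scaled to a negative control siRNA, with robust z-scores and luciferase per cell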
Reading the numbers: total luciferase, z-score and total luciferase, % of control: higher = more reporter protein produced
Rule for the call: 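Active when the median/MAD z-score for overall luciferase is greater than 3; a gene was taken forward for validation with new siRNAs if at least two of its three siRNAs passed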
Calls: active = raised luciferase; inactive = no rise
This is one part, drawn at random, of about 59,000 deposited reagents. About 1,510 of them (2.6%) count as active. 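Calls use total luciferase alone and ignore viability, so some active siRNAs may act by altering cell number.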 Reagents against one gene are numbered here. Further read-outs or replicates are left out here.

{"target gene": "ZC3H12C (GeneID 85463)", "reagent": 1, "total luciferase, z-score": -1.53, "total luciferase, % of control": 51.5, "activity call": "inactive"}
{"target gene": "ZC3H12C (GeneID 85463)", "reagent": 2, "total luciferase, z-score": 0.227, "total luciferase, % of control": 86.4, "activity call": "inactive"}
{"target gene": "ZC3H12C (GeneID 85463)", "reagent": 3, "total luciferase, z-score": 2.07, "total luciferase, % of control": 123, "activity call": "inactive"}
{"target gene": "SPAG4 (GeneID 6676)", "reagent": 1, "total luciferase, z-score": -0.313, "total luciferase, % of control": 75.7, "activity call": "inactive"}
{"target gene": "SPAG4 (GeneID 6676)", "reagent": 2, "total luciferase, z-score": -0.368, "total luciferase, % of control": 74.6, "activity call": "inactive"}
{"target gene": "SPAG4 (GeneID 6676)", "reagent": 3, "total luciferase, z-score": 1.2, "total luciferase, % of control": 106, "activity call": "inactive"}
{"target gene": "PGAP4 (GeneID 84302)", "reagent": 1, "total luciferase, z-score": 0.838, "total luciferase, % of control": 98.6, "activity call": "inactive"}
{"target gene": "PGAP4 (GeneID 84302)", "reagent": 2, "total luciferase, z-score": -0.39, "total luciferase, % of control": 74.1, "activity call": "inactive"}
{"target gene": "PGAP4 (GeneID 84302)", "reagent": 3, "total luciferase, z-score": 0.195, "total luciferase, % of control": 85.8, "activity call": "inactive"}
{"target gene": "TBC1D8B (GeneID 54885)", "reagent": 1, "total luciferase, z-score": 1.33, "total luciferase, % of control": 108, "activity call": "inactive"}
{"target gene": "TBC1D8B (GeneID 54885)", "reagent": 2, "total luciferase, z-score": -0.931, "total luciferase, % of control": 63.4, "activity call": "inactive"}
{"target gene": "TBC1D8B (GeneID 54885)", "reagent": 3, "total luciferase, z-score": -0.728, "total luciferase, % of control": 67.4, "activity call": "inactive"}

Continued, starting with the last 3 of the part before.
{"target gene": "TBC1D8B (GeneID 54885)", "reagent": 1, "total luciferase, z-score": 1.33, "total luciferase, % of control": 108, "activity call": "inactive"}
{"target gene": "TBC1D8B (GeneID 54885)", "reagent": 2, "total luciferase, z-score": -0.931, "total luciferase, % of control": 63.4, "activity call": "inactive"}
{"target gene": "TBC1D8B (GeneID 54885)", "reagent": 3, "total luciferase, z-score": -0.728, "total luciferase, % of control": 67.4, "activity call": "inactive"}
{"target gene": "PPIAP55 (GeneID 342541)", "reagent": 1, "total luciferase, z-score": 0.0607, "total luciferase, % of control": 83.1, "activity call": "inactive"}
{"target gene": "PPIAP55 (GeneID 342541)", "reagent": 2, "total luciferase, z-score": -0.691, "total luciferase, % of control": 68.1, "activity call": "inactive"}
{"target gene": "PPIAP55 (GeneID 342541)", "reagent": 3, "total luciferase, z-score": -0.367, "total luciferase, % of control": 74.6, "activity call": "inactive"}
{"target gene": "CDH24 (GeneID 64403)", "reagent": 1, "total luciferase, z-score": 0.76, "total luciferase, % of control": 97, "activity call": "inactive"}
{"target gene": "CDH24 (GeneID 64403)", "reagent": 2, "total luciferase, z-score": -0.0955, "total luciferase, % of control": 80, "activity call": "inactive"}
{"target gene": "CDH24 (GeneID 64403)", "reagent": 3, "total luciferase, z-score": 0.106, "total luciferase, % of control": 84, "activity call": "inactive"}
{"target gene": "FUNDC1 (GeneID 139341)", "reagent": 1, "total luciferase, z-score": 0.553, "total luciferase, % of control": 92.9, "activity call": "inactive"}
{"target gene": "FUNDC1 (GeneID 139341)", "reagent": 2, "total luciferase, z-score": 0.0482, "total luciferase, % of control": 82.8, "activity call": "inactive"}
{"target gene": "FUNDC1 (GeneID 139341)", "reagent": 3, "total luciferase, z-score": -0.0674, "total luciferase, % of control": 80.5, "activity call": "inactive"}
